Source: patent publication EP4653451A1, “POLYPEPTIDE COMPOUND AND USE THEREOF” (Chengdu New Radiomedicine Technology Co., Ltd., priority 2023, dated 2024)
Counter-ions that a name gives are not always drawn. Part of at least one peptide drawing is inferred or uncertain, most often the ends. Numbered stars: 1 amine (or outer) side, 2 acyl side, 3 side chain; on linkers, the order of the positions; unused ones are H or OH. Bridge positions count the residues as written; N and C are the ends. Peptide text beside a SMILES is read from it. * marks the point of attachment. X6 = NC[C@H](CSCc1cccc(C[*:1])c1)N[*:2]; Hexanoyl = CCCCCC(=O)*

Target: T1, human recombinant PREP protein (Homo sapiens, UniProt P48147)
T1 construct: purchased R&D systems 4308-SE-010
T1 sequence (P48147 1-710): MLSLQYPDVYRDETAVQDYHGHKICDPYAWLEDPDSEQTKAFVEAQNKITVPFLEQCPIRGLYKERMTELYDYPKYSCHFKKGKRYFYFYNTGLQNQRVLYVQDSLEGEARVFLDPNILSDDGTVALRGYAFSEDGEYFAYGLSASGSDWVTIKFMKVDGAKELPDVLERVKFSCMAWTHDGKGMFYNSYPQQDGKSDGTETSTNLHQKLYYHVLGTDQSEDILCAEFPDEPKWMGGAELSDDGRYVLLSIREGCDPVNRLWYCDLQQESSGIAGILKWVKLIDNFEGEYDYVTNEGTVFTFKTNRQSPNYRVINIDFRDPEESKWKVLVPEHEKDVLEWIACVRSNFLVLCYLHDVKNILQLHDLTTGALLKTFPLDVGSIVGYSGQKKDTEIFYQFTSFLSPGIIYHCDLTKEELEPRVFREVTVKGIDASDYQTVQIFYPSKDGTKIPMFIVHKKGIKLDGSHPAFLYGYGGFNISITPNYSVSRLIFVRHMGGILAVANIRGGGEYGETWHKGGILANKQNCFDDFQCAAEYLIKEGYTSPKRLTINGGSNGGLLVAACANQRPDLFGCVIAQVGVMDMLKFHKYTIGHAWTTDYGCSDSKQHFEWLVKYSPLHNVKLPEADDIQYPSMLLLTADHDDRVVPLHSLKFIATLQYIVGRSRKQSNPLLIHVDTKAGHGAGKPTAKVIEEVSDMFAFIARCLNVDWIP
Assay: Inhibitory activity against PREP protease activity, reported as PREP/FAP IC50 ratio
Assay type: biochemical
Conditions: ratio of PREP IC50 to FAP IC50
Protocol: The human recombinant PREP protein (R&D systems, 4308-SE-010) was formulated into a 125 pM working solution with a assay buffer (25 mM Tris-HCl, 250 mM NaCl, 2.5 mM DTT, 1 mg/mL BSA), and the PREP substrate (Z-Gly-Pro-AMC (LEONBIO, 68542-93-8)) was diluted to a 125 µM PREP substrate working solution with the assay buffer. 40 µl of PREP working solution and 20 µl of compounds at different concentrations (4-fold dilution) were taken, then 40 µl of PREP substrate working solution was added, and the mixture was uniformly mixed on a shaker at room temperature for 1 min. The uniformly mixed mixture was reacted at room temperature in the dark for 90 min. Reading was made by microplate reader at excitation and emission wavelengths of 380 nm and 460 nm. The original data was saved, and the IC50 value of the compound was obtained by analyzing the data with Graphpad PRISM.

CCCCCC(=O)N[C@H]1CSCc2cccc(c2)CSC[C@@H](CN)NC(=O)[C@H](Cc2ccccc2)NC(=O)[C@H](CCC(N)=O)NC(=O)[C@H]([C@@H](C)O)NC(=O)[C@@H]2CCCN2C(=O)[C@@H]2CCCN2C1=O [Compound 4, Hex-Cys-Pro-Pro-Thr-Gln-Phe-Cys-CH2NH2 (Cys bridge DBMB) trifluoroacetate] (Hexanoyl-CPPTQF; linker 1-C via X6)
PREP/FAP: D (1000 > D > 330)

CCCCCC(=O)N[C@H]1CSCc2cc(CSCCNC(=O)CN3CCN(CC(=O)O)CCN(CC(=O)O)CCN(CC(=O)O)CC3)cc(c2)CSC[C@@H](CC(=O)O)NC(=O)[C@H](Cc2ccccc2)NC(=O)[C@H](CCC(N)=O)NC(=O)[C@H]([C@@H](C)O)NC(=O)[C@@H]2CCCN2C(=O)[C@@H]2CCCN2C1=O [Compound 8, Hex-Cys-Pro-Pro-Thr-Gln-Phe-beta-HomoCys (Cys bridge TBMB (DOTA-AET)) trifluoroacetate]
PREP/FAP: B (10000 > B > 3300)
